Our source for the binding values is article PMC12274486, “A glyoxal-specific aldehyde signaling axis in Pseudomonas aeruginosa that influences quorum sensing and infection” (Nature Communications, 2025).

The target of the experiment is T1, ArqI-BirA*-FLAG fusion protein (Pseudomonas aeruginosa MPAO1).
T1 sequence: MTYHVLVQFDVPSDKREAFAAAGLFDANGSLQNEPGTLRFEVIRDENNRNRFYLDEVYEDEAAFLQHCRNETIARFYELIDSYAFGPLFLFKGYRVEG
Description: proximity labelling; BioID in P. aeruginosa MPAO1: ArqI-BirA*-FLAG or BirA*-FLAG co-expressed with PqsA-HA, 50 µM biotin; anti-HA immunoprecipitation, then streptavidin-HRP blot.

These are yes or no findings as the source states them, for the method shown. Binding seen in cells or lysates may run through a third protein. A yes stands for co-enrichment or nearness to the bait. Other partners may have been found. Where a sequence is shown, tags or fusion partners need not be part of it.

B1: HA-tagged PqsA (enzyme, UniProt Q9I4X3 1-517)
chain: MSTLANLTEVLFRLDFDPDTAVYHYRGQTLSRLQCRTYILSQASQLARLLKPGDRVVLALNDSPSLACLFLACIAVGAIPAVINPKSREQALADIAADCQASLVVREADAPSLSGPLAPLTLRAAAGRPLLDDFSLDALVGPADLDWSAFHRQDPAAACFLQYTSGSTGAPKGVMHSLRNTLGFCRAFATELLALQAGDRLYSIPKMFFGYGMGNSLFFPWFSGASALLDDTWPSPERVLENLVAFRPRVLFGVPAIYASLRPQARELLSSVRLAFSAGSPLPRGEFEFWAAHGLEICDGIGATEVGHVFLANRPGQARADSTGLPLPGYECRLVDREGHTIEEAGRQGVLLVRGPGLSPGYWRASEEQQARFAGGWYRTGDLFERDESGAYRHCGREDDLFKVNGRWVVPTQVEQAICRHLPEVSEAVLVPTCRLHDGLRPTLFVTLATPLDDNQILLAQRIDQHLAEQIPSHMLPSQLHVLPALPRNDNGKLARAELRHLADTLYHDNLPEERAC
Regarding B1, the binding entry is on record as “binds”.
